Test results published in PubChem BioAssay AID1347131 (National Center for Advancing Translational Sciences (NCATS), 2019).
Out of some 410,000 compounds screened, about 2,000 (0.49%) were called active. Inconclusive results, whose numbers are uncertain, are shown with a selection of clear calls. The call rests on the fitted dose curve; tested in HEK293 reporter line. Potencies beside an inconclusive call are fits to weak or partial responses and may not hold up.

experiment: qHTS Assay for Foot and Mouth Disease Virus Antivirals: Primary Screen against the MLPCN compound library; conditions: FMDV antiviral cell-based qHTS; activity, negative = inhibition: at 57.9 µM (top of the series); further: nearly all actives have a fitted effect of over 55% in size
Potency means the concentration at half of the fitted maximal effect.

**Q.** With `COC(=O)c1ccc(CSc2nc3ccccc3o2)cc1` as the compound, how does the Potency read?
**A.** inconclusive: 15.8 µM [inhibitor, partial curve]

**Q.** Which Potency does the source give for `Cc1sc2ncnc(N3CCC(C(=O)N(C)CC(=O)Nc4cccc(F)c4)CC3)c2c1C` here?
**A.** inconclusive: 17.8 µM [inhibitor, partial curve, poor fit]

**Q.** With `N#CC12COC3(CCCCC3C1(C#N)C#N)OC2=N` (configuration not stated) as the compound, how does the Potency read?
**A.** inconclusive: 28.2 µM [inhibitor, partial curve, poor fit]

**Q.** For `Clc1ccc(Cn2ncc3c(N4CCCCC4)ncnc32)c(Cl)c1`, which Potency is on record?
**A.** inconclusive: 28.2 µM [inhibitor, partial curve, poor fit]

**Q.** Which Potency does the source give for `CN(C)S(=O)(=O)c1ccc(-c2csc(N/N=C/c3ccc(O)cc3)n2)cc1` here?
**A.** inconclusive: 14.1 µM [inhibitor, partial curve, poor fit]

**Q.** With `COC(=O)C1=C(C)N(Cc2ccccc2)C(=NCc2cccc(C(F)(F)F)c2)N[C@H]1c1cccc(C(F)(F)F)c1` as the compound, how does the Potency read?
**A.** inconclusive: 39.8 µM [inhibitor, single point]

**Q.** Which Potency does the source give for `COc1ccccc1-c1cc(C(F)(F)F)nc(S(=O)(=O)CCCC(=O)O)n1` here?
**A.** inconclusive: 25.1 µM [inhibitor, partial curve, poor fit]

**Q.** For `O=C(Nc1cccc(N2C(=O)C3CCCCC3C2=O)c1)c1ccccc1` (configuration not stated), which Potency is on record?
**A.** active: 14.1 µM

**Q.** With `CCc1ccc(N(CC(=O)NCc2ccc(F)cc2)C(=O)c2csnn2)cc1` as the compound, how does the Potency read?
**A.** inconclusive: 7.94 µM [inhibitor, partial curve, poor fit]

**Q.** For `COC1C(OC(=O)c2ccc(C)[nH]2)C(O)C(Oc2ccc3c(O)c(NC(=O)c4ccc(O)c(CC=C(C)C)c4)c(=O)oc3c2Cl)OC1(C)C` (configuration not stated), which Potency is on record?
**A.** inconclusive: 39.8 µM [inhibitor, partial curve, poor fit]

**Q.** For `CNc1ccc(Br)cc(C(=O)/C=C/c2cccc(Cl)c2Cl)c1=O`, which Potency is on record?
**A.** inconclusive: 20 µM [inhibitor, partial curve, poor fit]

**Q.** For `COc1cc(OC)c(OC)cc1CNC(=O)c1cccc(S(=O)(=O)N2CCc3ccccc3C2)c1`, which Potency is on record?
**A.** inconclusive: 11.2 µM [inhibitor, partial curve, poor fit]

**Q.** With `COc1ccc(CCn2c(-c3ccco3)nc3ccccc3c2=O)cc1OC` as the compound, how does the Potency read?
**A.** inconclusive: 31.6 µM [inhibitor, partial curve, poor fit]

**Q.** For `COc1ccccc1NC(=O)COc1ccc(/C=N/NC(=O)CSCc2ccc(Cl)cc2)cc1`, which Potency is on record?
**A.** inconclusive: 17.8 µM [inhibitor, partial curve, poor fit]

**Q.** Which Potency does the source give for `O=C(CN1C(=O)NC(Cc2c[nH]c3ccccc23)C1=O)Nc1ccccc1Br` (configuration not stated) here?
**A.** inconclusive: 5.01 µM [inhibitor, full curve]

**Q.** With `Fc1ccccc1COc1ccc(Br)cc1CNCc1ccncc1` as the compound, how does the Potency read?
**A.** inconclusive: 31.6 µM [inhibitor, partial curve, poor fit]

**Q.** For `COc1cc(OC)cc(C(=O)Nc2ccc3c(c2)CCCN3C(=O)c2cccs2)c1`, which “activity, negative = inhibition” value is on record?
**A.** inactive: -30.8%

**Q.** For `O=[N+]([O-])c1ccc(S(=O)(=O)N2CCN(C3CCN(Cc4ccccc4)CC3)CC2)cc1`, which Potency is on record?
**A.** inconclusive: 10 µM [inhibitor, partial curve]

**Q.** Which Potency does the source give for `Cc1cc(C(=O)CCl)c(C)n1Cc1ccco1` here?
**A.** inconclusive: 28.2 µM [inhibitor, partial curve, poor fit]

**Q.** Which Potency does the source give for `Cc1cccc(C(=O)N2CCc3cc(CNC(=O)c4ccco4)ccc32)c1` here?
**A.** inconclusive: 28.2 µM [inhibitor, partial curve, poor fit]

**Q.** Which Potency does the source give for `O=C(Nc1cccnc1)c1ccc(S(=O)(=O)c2ccc(Cl)cc2)cc1` here?
**A.** inconclusive: 28.2 µM [inhibitor, partial curve, poor fit]

**Q.** For `CCOC(=O)/C(=C/c1ccc(OC(F)F)cc1)C1=Nn2c(nnc2-c2ccc(Cl)cc2)SC1`, which Potency is on record?
**A.** inconclusive: 12.6 µM [inhibitor, partial curve, poor fit]

**Q.** With `O=C(Nc1cccc(F)c1)c1ccc(-c2cccnc2)c2ccoc12` as the compound, how does the Potency read?
**A.** inconclusive: 39.8 µM [inhibitor, single point]

**Q.** For `COc1ccc(CCNCc2ccccn2)cc1OC`, which Potency is on record?
**A.** inconclusive: 31.6 µM [inhibitor, partial curve, poor fit]

**Q.** For `CSc1ccc(/C=N/Nc2cccc(C(=O)O)c2)cc1`, which Potency is on record?
**A.** inconclusive: 2.24 µM [inhibitor, full curve, poor fit]

**Q.** With `COc1ccc(CCNc2ncnc3c2c(-c2ccccc2)cn3-c2cccc(Cl)c2)cc1OC` as the compound, how does the Potency read?
**A.** inconclusive: 25.1 µM [inhibitor, partial curve, poor fit]

**Q.** Which Potency does the source give for `O=[N+]([O-])c1cccc(-c2cc(-c3cc(Br)ccc3O)[nH]n2)c1` here?
**A.** inconclusive: 28.2 µM [inhibitor, partial curve, poor fit]

**Q.** With `COc1ccc(Cc2nnc(N/N=C/c3ccc(O)cc3)[nH]c2=O)cc1OC` as the compound, how does the Potency read?
**A.** inconclusive: 2.24 µM [inhibitor, partial curve, poor fit]

**Q.** Which Potency does the source give for `COc1ccc(-c2nc3ccccc3c(=O)n2CC(C)C)cc1` here?
**A.** inconclusive: 22.4 µM [inhibitor, single point]

**Q.** With `Cc1ccc(Cn2nnnc2CN2CCC(NC(=O)c3ccc(Br)cc3)CC2)cc1` as the compound, how does the Potency read?
**A.** inconclusive: 28.2 µM [inhibitor, partial curve, poor fit]

**Q.** Which Potency does the source give for `O=C(CSc1nnc2scc(-c3ccc(Cl)cc3)n12)Nc1ccccc1F` here?
**A.** inconclusive: 35.5 µM [inhibitor, partial curve, poor fit]

**Q.** For `CCCCCc1c(-c2ccccc2F)ncn1CCc1ccccc1OC`, which Potency is on record?
**A.** inconclusive: 31.6 µM [inhibitor, single point]

**Q.** For `CC1CCN(c2ccc(-c3cccs3)nn2)CC1`, which Potency is on record?
**A.** inconclusive: 7.94 µM [inhibitor, full curve, poor fit]

**Q.** For `COc1ccc2nc(NC(=O)C3CCN(S(=O)(=O)c4cnc[nH]4)CC3)sc2c1`, which Potency is on record?
**A.** inconclusive: 22.4 µM [inhibitor, partial curve, poor fit]

**Q.** For `CC(C)(C)c1csc(NC(=O)c2ccc(Cl)s2)n1`, which Potency is on record?
**A.** inconclusive: 20 µM [inhibitor, single point]

**Q.** Which Potency does the source give for `CCC(CC)C(=O)Nc1ccc2nc(SCC(=O)N3CCOCC3)sc2c1` here?
**A.** inconclusive: 28.2 µM [inhibitor, partial curve, poor fit]

**Q.** For `N=c1c2c(n(Cc3ccc(Br)cc3)c3c1CCC3)CCCC2`, which Potency is on record?
**A.** inconclusive: 39.8 µM [inhibitor, partial curve, poor fit]

**Q.** For `CCN(CC)C(=O)Cn1cc(/C=C2\C(=O)NC(=O)N(c3ccccc3F)C2=O)c2ccccc21`, which Potency is on record?
**A.** inconclusive: 25.1 µM [inhibitor, partial curve, poor fit]

**Q.** Which Potency does the source give for `CC(C)OC(=O)c1cn(-c2ccccc2)nc1-c1ccc2c(c1)OCCO2` here?
**A.** inconclusive: 39.8 µM [inhibitor, partial curve, poor fit]

**Q.** For `COC(=O)Cc1c(C)c2ccc(OCC(=O)N3CCC(C)CC3)c(C)c2oc1=O`, which Potency is on record?
**A.** inconclusive: 35.5 µM [inhibitor, single point]

**Q.** For `CCOC(=O)N1CCc2c(sc(NC(=O)C3COc4ccccc4O3)c2C(N)=O)C1` (configuration not stated), which Potency is on record?
**A.** inconclusive: 39.8 µM [inhibitor, partial curve, poor fit]

**Q.** With `COc1cccc(C(=O)COC(=O)COc2c(C)cc(C)cc2C)c1` as the compound, how does the Potency read?
**A.** inconclusive: 4.47 µM [inhibitor, full curve]

**Q.** Which “activity, negative = inhibition” value does the source give for `NC(=O)c1ccsc1NC(=O)CCS(=O)(=O)c1ccc(F)cc1` here?
**A.** inactive: -36.9%

**Q.** For `O=C(c1cccs1)N1CCN(C(=O)c2cccs2)C1=S`, which Potency is on record?
**A.** inconclusive: 35.5 µM [inhibitor, single point]

**Q.** With `O=S(=O)(c1ccc2[nH]c3c(c2c1)CCCC3)N1CCN(c2cccc(C(F)(F)F)c2)CC1` as the compound, how does the Potency read?
**A.** inconclusive: 14.1 µM [inhibitor, partial curve, poor fit]

**Q.** For `CCn1nc(-c2cccs2)nc2c(=O)n(C)c(=O)nc1-2`, which Potency is on record?
**A.** inconclusive: 1.58 µM [inhibitor, full curve, poor fit]

**Q.** For `Cc1ccc(F)cc1NC(=O)c1ccc(Cn2nc(N3CCN(c4ccccc4)CC3)ccc2=O)o1`, which Potency is on record?
**A.** inconclusive: 35.5 µM [inhibitor, partial curve, poor fit]

**Q.** For `COc1ccccc1S(=O)(=O)Cc1ccc(C(=O)N2CCN(c3cccc(Cl)c3)CC2)o1`, which Potency is on record?
**A.** inconclusive: 17.8 µM [inhibitor, partial curve, poor fit]

**Q.** Which Potency does the source give for `COc1ccc(CCN(C)CCC(=O)Nc2cccc(C)c2)cc1OC` here?
**A.** inconclusive: 3.98 µM [inhibitor, partial curve, poor fit]

**Q.** Which Potency does the source give for `Cc1ccc(NC(=O)c2ccc3oc(=O)c(S(=O)(=O)c4ccccc4)cc3c2)cc1C` here?
**A.** inconclusive: 28.2 µM [inhibitor, partial curve, poor fit]

**Q.** Which Potency does the source give for `Cc1nc2scc(-c3ccccc3)c2c(=O)o1` here?
**A.** inconclusive: 22.4 µM [inhibitor, partial curve, poor fit]

**Q.** With `CS(=O)(=O)c1ccc(N2CCN(S(=O)(=O)c3cccs3)CC2)c([N+](=O)[O-])c1` as the compound, how does the Potency read?
**A.** inconclusive: 7.94 µM [inhibitor, partial curve]

**Q.** For `COc1ccc(NS(=O)(=O)c2cc(NC(=O)c3ccc(=O)[nH]c3)ccc2N2CCOCC2)cc1`, which “activity, negative = inhibition” value is on record?
**A.** inactive: 102%

**Q.** Which “activity, negative = inhibition” value does the source give for `Cc1ccc(C(=O)Nc2ccccc2C(=O)O)cc1S(=O)(=O)Nc1ccccc1` here?
**A.** inactive: 106%

**Q.** Which Potency does the source give for `CN(C)c1ccc(-c2nc3cnccn3c2Nc2cccc(C(F)(F)F)c2)cc1` here?
**A.** inconclusive: 2.24 µM [inhibitor, full curve]

**Q.** For `COc1ccc(/C=N/Nc2nc3ccccc3o2)cc1O`, which Potency is on record?
**A.** inconclusive: 17.8 µM [inhibitor, partial curve]

**Q.** With `O=C(c1ccoc1)N1CCN(c2cc(-c3ccccc3)nc3cc(-c4ccccc4)nn23)CC1` as the compound, how does the Potency read?
**A.** inconclusive: 35.5 µM [inhibitor, partial curve, poor fit]
